Test results taken from US20240175877A1.
No constants are given. Whether binding was seen depends on the method and setting. Some results given as binding are weak or reduced against the parent protein; the word gives no strength.

Sequences of proteins named here, by UniProt entry; tags and fusion partners are left off. A change or cut given only in a name is not applied to a line headed by its entry.
UniProt Q6PSU2: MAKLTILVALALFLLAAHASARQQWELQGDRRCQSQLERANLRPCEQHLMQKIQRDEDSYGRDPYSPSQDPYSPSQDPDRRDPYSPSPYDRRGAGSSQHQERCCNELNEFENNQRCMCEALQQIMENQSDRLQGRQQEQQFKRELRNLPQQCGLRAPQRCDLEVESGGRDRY

Molecular target: Ara h 2 (peanut) (UniProt Q6PSU2)
Assay: epitope bin summary

B1: 15FU1P3A6 (antibody, IgG1, V domains shown)
VH: LVESGGGSVPPGGSLRLSCVASGVYFSDWAMNWVRQAPGKGLEWISSISGRGANIYYAESVRGRFTTSRDNSQNTVFLDLTDLTVEDTALYFCAKTPLLTRAFDVWGQGTAVTVSA
VL: DIVMTQSPSTLSASVGDRVTITCRASQSVNTWLAWYQQKPGKAPRLLIYKVSTLESGVPSRFSGSGSGTEFTLTISSLQPDDFATYYCQQYNIDSRYSFGPGTKVEIK
  binding: binds
